Counter-ions that a name gives are not always drawn. The list shows a part of the results. The calls rarely recur for the same compound in another form.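 Kinases were expressed as nanoluciferase fusions in K562 cells and luminescence was read every 4 h between 2 and 18 h as percent of control, DMSO set to 100% and a positive control to 0%. A time point counts as decreased when the signal drops significantly (2 sigma). The hit call is the authors' own, does not follow from the count of time points alone, and its rule is not shown.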
How the values were obtained:
Assay in all cases: kinase-Nluc reporter destabilization hit call (1 = scored as downregulated) (binary); higher = compound decreases kinase abundance
Conditions in all cases: K562; 2-18 h
CDK7 = CDK7 (UniProt P50613)
CDK9 = CDK9 (UniProt P50750)
CHEK2 = CHEK2 (UniProt O96017)
CSF1R = CSF1R (UniProt P07333)
CSK = CSK (UniProt P41240)
CSNK1A1 = CSNK1A1 (UniProt P48729)
CSNK1D = CSNK1D (UniProt P48730)
DDR1 = DDR1 (UniProt Q08345)
DYRK1B = DYRK1B (UniProt Q9Y463)
DYRK2 = DYRK2 (UniProt Q92630)

The chains behind the UniProt entries cited, without tags or fusion partners. Where a name states a change or a piece, a line headed by the entry shows the natural chain unless it says otherwise.
UniProt P50613: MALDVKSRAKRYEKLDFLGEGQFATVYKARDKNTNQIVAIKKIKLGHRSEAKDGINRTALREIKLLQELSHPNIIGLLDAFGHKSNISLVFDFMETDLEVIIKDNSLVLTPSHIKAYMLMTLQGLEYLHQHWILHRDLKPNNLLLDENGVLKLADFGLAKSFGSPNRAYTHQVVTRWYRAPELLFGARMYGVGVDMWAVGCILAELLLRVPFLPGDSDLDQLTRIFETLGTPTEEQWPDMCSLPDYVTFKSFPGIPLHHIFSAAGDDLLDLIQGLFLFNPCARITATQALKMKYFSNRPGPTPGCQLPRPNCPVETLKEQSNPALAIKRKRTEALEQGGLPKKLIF
UniProt P50750, whole entry: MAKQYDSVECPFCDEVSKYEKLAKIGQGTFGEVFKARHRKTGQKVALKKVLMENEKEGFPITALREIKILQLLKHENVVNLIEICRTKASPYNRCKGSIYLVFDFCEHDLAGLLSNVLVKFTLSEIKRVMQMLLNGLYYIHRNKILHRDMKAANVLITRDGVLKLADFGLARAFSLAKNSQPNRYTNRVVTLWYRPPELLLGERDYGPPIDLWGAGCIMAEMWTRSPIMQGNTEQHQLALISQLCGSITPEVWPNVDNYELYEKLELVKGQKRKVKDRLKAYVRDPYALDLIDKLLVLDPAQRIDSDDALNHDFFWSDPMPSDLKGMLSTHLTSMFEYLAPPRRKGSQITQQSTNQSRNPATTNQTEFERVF
UniProt O96017, whole entry: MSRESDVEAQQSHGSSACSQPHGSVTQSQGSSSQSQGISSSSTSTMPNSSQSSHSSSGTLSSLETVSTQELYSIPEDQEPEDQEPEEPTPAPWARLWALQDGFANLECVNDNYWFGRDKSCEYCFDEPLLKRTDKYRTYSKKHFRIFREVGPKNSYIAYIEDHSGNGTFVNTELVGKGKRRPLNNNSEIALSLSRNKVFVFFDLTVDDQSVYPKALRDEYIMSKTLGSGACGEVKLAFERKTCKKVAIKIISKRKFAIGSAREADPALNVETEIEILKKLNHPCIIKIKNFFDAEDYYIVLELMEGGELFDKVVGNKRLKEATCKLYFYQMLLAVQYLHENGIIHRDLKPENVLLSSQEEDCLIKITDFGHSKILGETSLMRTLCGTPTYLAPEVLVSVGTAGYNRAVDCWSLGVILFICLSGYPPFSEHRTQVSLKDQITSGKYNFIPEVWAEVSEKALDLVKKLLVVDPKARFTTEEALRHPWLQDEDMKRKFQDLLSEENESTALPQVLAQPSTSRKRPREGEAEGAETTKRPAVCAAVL
UniProt P07333, whole entry: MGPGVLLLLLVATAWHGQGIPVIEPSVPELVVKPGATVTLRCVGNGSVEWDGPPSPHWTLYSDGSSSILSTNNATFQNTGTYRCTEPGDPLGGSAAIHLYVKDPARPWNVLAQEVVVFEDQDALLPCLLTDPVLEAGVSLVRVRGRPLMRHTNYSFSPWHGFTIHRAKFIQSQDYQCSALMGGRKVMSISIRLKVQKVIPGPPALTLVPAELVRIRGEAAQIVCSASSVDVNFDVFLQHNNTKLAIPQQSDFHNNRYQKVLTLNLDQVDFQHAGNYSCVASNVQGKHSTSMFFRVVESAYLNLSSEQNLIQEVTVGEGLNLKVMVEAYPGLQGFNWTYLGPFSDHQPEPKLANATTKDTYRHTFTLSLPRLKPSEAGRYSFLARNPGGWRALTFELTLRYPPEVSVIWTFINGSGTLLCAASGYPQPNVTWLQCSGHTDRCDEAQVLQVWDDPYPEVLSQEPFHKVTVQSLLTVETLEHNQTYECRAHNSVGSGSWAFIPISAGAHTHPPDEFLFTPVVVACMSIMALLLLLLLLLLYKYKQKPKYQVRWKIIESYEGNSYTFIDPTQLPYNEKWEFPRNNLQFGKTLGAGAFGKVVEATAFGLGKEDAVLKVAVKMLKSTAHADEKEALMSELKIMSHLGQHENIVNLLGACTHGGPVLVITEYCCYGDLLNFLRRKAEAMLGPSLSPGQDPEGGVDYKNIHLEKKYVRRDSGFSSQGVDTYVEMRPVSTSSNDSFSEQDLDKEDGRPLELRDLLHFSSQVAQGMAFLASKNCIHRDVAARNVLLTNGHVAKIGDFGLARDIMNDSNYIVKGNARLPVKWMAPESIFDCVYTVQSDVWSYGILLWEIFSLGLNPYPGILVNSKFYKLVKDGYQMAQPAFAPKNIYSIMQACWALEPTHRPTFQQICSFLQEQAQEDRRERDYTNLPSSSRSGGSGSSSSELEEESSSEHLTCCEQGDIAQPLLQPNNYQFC
UniProt P41240: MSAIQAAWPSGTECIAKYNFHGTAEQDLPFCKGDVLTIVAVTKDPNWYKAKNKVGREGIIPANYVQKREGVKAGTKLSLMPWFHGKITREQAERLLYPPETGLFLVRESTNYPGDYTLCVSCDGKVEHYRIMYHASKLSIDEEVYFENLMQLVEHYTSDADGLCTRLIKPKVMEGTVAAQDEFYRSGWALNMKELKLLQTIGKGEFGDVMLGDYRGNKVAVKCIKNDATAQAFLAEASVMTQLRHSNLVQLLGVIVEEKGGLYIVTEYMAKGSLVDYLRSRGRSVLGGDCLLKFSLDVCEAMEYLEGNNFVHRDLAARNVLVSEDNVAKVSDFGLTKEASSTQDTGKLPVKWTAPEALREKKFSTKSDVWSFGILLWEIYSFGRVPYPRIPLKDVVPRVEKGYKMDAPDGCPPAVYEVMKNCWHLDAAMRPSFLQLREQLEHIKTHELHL
UniProt P48729: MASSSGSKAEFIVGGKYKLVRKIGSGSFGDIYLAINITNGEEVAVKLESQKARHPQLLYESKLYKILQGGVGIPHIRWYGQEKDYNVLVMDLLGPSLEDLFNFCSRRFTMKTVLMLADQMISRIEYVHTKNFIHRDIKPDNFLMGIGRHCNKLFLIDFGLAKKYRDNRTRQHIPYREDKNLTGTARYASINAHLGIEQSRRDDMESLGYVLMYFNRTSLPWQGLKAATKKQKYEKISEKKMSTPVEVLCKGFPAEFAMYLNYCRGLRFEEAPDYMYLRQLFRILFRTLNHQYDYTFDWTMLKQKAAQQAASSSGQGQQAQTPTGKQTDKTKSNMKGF
UniProt P48730: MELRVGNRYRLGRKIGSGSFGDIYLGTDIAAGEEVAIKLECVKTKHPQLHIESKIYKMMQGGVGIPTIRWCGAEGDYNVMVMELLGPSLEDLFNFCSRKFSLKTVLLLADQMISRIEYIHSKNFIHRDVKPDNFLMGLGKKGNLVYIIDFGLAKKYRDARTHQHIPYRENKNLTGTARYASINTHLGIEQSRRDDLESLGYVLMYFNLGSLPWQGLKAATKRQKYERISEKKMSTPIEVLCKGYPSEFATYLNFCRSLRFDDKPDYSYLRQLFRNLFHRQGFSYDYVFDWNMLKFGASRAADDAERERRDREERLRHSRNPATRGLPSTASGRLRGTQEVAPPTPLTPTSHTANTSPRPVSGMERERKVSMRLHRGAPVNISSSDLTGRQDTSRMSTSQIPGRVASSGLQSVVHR
UniProt Q08345: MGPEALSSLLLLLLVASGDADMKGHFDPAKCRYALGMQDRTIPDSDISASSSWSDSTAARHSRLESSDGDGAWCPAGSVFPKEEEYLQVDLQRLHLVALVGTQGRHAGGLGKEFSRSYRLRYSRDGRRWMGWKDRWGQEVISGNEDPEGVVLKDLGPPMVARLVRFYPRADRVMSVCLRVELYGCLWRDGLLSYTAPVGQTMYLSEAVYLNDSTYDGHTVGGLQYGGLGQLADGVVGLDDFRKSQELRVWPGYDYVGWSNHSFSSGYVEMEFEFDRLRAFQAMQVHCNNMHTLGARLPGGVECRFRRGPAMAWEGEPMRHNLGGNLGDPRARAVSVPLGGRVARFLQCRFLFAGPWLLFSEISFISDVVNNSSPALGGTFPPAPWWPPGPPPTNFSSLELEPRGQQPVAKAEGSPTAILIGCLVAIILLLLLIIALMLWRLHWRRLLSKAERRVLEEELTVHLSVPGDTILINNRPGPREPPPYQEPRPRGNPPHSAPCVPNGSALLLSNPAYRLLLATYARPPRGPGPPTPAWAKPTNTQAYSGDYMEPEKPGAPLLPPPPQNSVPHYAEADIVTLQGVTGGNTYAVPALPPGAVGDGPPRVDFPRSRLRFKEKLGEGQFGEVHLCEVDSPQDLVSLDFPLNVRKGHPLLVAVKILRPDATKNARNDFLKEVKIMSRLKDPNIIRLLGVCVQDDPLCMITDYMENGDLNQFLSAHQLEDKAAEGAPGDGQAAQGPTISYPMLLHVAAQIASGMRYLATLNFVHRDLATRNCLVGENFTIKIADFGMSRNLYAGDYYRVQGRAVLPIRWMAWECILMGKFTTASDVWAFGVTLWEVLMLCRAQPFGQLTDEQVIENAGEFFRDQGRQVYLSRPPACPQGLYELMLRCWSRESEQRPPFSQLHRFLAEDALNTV
UniProt Q9Y463, whole entry, looked up: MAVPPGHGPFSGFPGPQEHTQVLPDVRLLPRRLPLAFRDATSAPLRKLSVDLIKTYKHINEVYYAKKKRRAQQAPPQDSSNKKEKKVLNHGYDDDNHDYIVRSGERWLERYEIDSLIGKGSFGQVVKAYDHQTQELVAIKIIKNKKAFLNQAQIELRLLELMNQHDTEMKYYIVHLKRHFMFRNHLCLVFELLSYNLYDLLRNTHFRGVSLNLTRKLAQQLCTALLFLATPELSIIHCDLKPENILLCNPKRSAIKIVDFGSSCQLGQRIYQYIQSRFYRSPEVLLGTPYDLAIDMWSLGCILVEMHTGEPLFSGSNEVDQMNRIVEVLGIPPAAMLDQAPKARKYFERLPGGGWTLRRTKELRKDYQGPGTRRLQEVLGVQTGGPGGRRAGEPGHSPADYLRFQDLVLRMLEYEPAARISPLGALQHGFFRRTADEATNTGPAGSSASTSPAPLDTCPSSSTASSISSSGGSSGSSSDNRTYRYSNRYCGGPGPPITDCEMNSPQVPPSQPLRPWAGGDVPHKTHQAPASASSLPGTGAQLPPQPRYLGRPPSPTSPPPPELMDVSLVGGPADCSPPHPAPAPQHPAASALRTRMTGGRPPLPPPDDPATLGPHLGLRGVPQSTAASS
UniProt Q92630: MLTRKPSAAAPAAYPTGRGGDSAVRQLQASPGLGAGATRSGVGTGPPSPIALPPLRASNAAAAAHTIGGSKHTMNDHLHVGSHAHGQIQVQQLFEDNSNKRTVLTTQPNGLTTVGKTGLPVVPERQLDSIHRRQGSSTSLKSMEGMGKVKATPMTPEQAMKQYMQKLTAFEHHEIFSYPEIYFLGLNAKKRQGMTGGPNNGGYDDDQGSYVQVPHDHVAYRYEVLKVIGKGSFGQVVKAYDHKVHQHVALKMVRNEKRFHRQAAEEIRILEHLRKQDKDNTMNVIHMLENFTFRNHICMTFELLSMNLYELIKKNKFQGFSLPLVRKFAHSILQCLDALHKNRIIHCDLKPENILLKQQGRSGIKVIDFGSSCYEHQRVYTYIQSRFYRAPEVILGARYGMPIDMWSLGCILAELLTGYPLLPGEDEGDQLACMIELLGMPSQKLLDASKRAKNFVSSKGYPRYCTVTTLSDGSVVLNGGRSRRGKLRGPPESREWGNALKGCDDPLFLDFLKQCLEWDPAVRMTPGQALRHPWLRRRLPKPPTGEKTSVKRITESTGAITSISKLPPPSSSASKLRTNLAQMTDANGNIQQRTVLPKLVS

Measured: kinase-Nluc reporter destabilization hit call

O=C(Nc1nccs1)C(c1cc(F)ccc1O)N1Cc2ccc(-c3ccc(N4CCNCC4)cc3)cc2C1=O (racemic) (10 µM)
inactive: CDK7 = 0 | CDK9 = 0 | CHEK2 = 0 | CSF1R 0 | CSK 0 | CSNK1A1 = 0 | CSNK1D 0 | DDR1 = 0 | DYRK1B 0 | DYRK2 = 0

COc1ccc(C2CC(c3ccc(Cl)cc3)=NN2c2nc(-c3ccncc3)cs2)cc1 (stereo not given) [mTOR inhibitor-8] (10 µM)
inactive: CDK7 = 0 | CDK9 = 0 | CHEK2 = 0 | CSF1R 0 | CSK 0 | CSNK1A1 = 0 | CSNK1D 0 | DDR1 = 0 | DYRK1B 0 | DYRK2 = 0

COc1ccc(F)cc1C(=O)NCc1ccc(-c2nn([C@@H](C)C(F)(F)F)c(N)c2C(N)=O)cc1 [Pirtobrutinib] (10 µM)
inactive: CDK7 = 0 | CDK9 = 0 | CHEK2 = 0 | CSF1R 0 | CSK 0 | CSNK1A1 = 0 | CSNK1D 0 | DDR1 = 0 | DYRK1B 0 | DYRK2 = 0

O=C(O)/C=C/c1cc(Br)c(Br)c(Br)c1Br (10 µM)
inactive: CDK7 = 0 | CDK9 = 0 | CHEK2 = 0 | CSF1R 0 | CSK 0 | CSNK1A1 = 0 | CSNK1D 0 | DDR1 = 0 | DYRK1B 0 | DYRK2 = 0

C=CCN(/C=C1/C(=O)O[C@H](COC)[C@@]2(C)C1=C(O)C(=O)C1=C2[C@H](OC(C)=O)C[C@]2(C)C(=O)CC[C@@H]12)CC=C [Sonolisib] (2.5 µM)
inactive: CDK7 = 0 | CDK9 = 0 | CHEK2 = 0 | CSF1R 0 | CSK 0 | CSNK1A1 = 0 | CSNK1D 0 | DDR1 = 0 | DYRK1B 0 | DYRK2 = 0

C[C@@H](Nc1cc(F)cc(F)c1)c1cc(C(=O)N(C)C)cc2c(=O)cc(N3CCOCC3)oc12 (10 µM)
inactive: CDK7 = 0 | CDK9 = 0 | CHEK2 = 0 | CSF1R 0 | CSK 0 | CSNK1A1 = 0 | CSNK1D 0 | DDR1 = 0 | DYRK1B 0 | DYRK2 = 0

CC(=O)Nc1nc(C)c(-c2cc3c(c(S(C)(=O)=O)c2)C(=O)N([C@@H](C)C2CC2)C3)s1 (2.5 µM)
inactive: CDK7 = 0 | CDK9 = 0 | CHEK2 = 0 | CSF1R 0 | CSK 0 | CSNK1A1 = 0 | CSNK1D 0 | DDR1 = 0 | DYRK1B 0 | DYRK2 = 0

CNC(=O)c1nnc(NC(=O)C2CC2)cc1Nc1cccc(-c2ncn(C)n2)c1OC [Deucravacitinib] (10 µM)
inactive: CDK7 = 0 | CDK9 = 0 | CHEK2 = 0 | CSF1R 0 | CSK 0 | CSNK1A1 = 0 | CSNK1D 0 | DDR1 = 0 | DYRK1B 0 | DYRK2 = 0

C[C@H](Nc1ccc2c(c1)OCCn1cc(N3C(=O)OC[C@H]3C(F)F)nc1-2)C(N)=O (10 µM)
inactive: CDK7 = 0 | CDK9 = 0 | CHEK2 = 0 | CSF1R 0 | CSK 0 | CSNK1A1 = 0 | CSNK1D 0 | DDR1 = 0 | DYRK1B 0
active: DYRK2 = 1

CNCCOc1ccccc1C(C)(C)Nc1nccn(-c2cc(C(=O)NC3CC3)ccc2C)c1=O [p38α inhibitor 2] (10 µM)
inactive: CDK7 = 0 | CDK9 = 0 | CHEK2 = 0 | CSF1R 0 | CSK 0 | CSNK1A1 = 0 | CSNK1D 0 | DDR1 = 0 | DYRK1B 0 | DYRK2 = 0

COc1ccc2c(c1)C[C@H](C(=O)Nc1ccc(-c3cn[nH]c3)cc1OCCN(C)C)CO2 [Chroman 1] (10 µM)
inactive: CDK7 = 0 | CDK9 = 0 | CHEK2 = 0 | CSF1R 0 | CSK 0 | CSNK1A1 = 0 | CSNK1D 0 | DDR1 = 0 | DYRK1B 0 | DYRK2 = 0

C[C@@H]1O[C@@H](O[C@H]2[C@H](OC(=O)[C@]34CCC(C)(C)C[C@H]3C3=CC[C@@H]5[C@@]6(C)C[C@H](O)[C@H](O[C@@H]7O[C@H](CO)[C@@H](O)[C@H](O)[C@H]7O)C(CO)(CO)[C@@H]6CC[C@@]5(C)[C@]3(C)C[C@H]4O)OC[C@H](O)[C@@H]2O)[C@H](O)[C@H](O)[C@H]1O[C@@H]1OC[C@@H](O)[C@H](O[C@@H]2OC[C@](O)(CO)[C@H]2O)[C@H]1O [Platycodin D] (10 µM)
inactive: CDK7 = 0 | CDK9 = 0 | CHEK2 = 0 | CSF1R 0 | CSK 0 | CSNK1A1 = 0 | CSNK1D 0 | DDR1 = 0 | DYRK1B 0 | DYRK2 = 0

CNC[C@@H](NC(=O)c1ccc(-c2nc([C@H]3CC[C@H](O)[C@@H](F)C3)cnc2N)cc1F)c1cc(F)cc(Br)c1 [Rineterkib] (10 µM)
inactive: CDK7 = 0 | CDK9 = 0 | CHEK2 = 0 | CSF1R 0 | CSK 0 | CSNK1A1 = 0 | CSNK1D 0 | DDR1 = 0 | DYRK1B 0 | DYRK2 = 0

COc1cc2nccc(Oc3ccc(NC(=O)Nc4ccc(F)cc4F)c(F)c3)c2cc1OC (10 µM)
inactive: CDK7 = 0 | CDK9 = 0 | CHEK2 = 0 | CSF1R 0 | CSK 0 | CSNK1A1 = 0 | CSNK1D 0 | DDR1 = 0 | DYRK1B 0 | DYRK2 = 0

Retrieved by compound from the list above (two):
CNCCOc1ccccc1C(C)(C)Nc1nccn(-c2cc(C(=O)NC3CC3)ccc2C)c1=O [p38α inhibitor 2] (10 µM)
inactive: CDK7 = 0 | CDK9 = 0 | CHEK2 = 0 | CSF1R 0 | CSK 0 | CSNK1A1 = 0 | CSNK1D 0 | DDR1 = 0 | DYRK1B 0 | DYRK2 = 0

COc1cc2nccc(Oc3ccc(NC(=O)Nc4ccc(F)cc4F)c(F)c3)c2cc1OC (10 µM)
inactive: CDK7 = 0 | CDK9 = 0 | CHEK2 = 0 | CSF1R 0 | CSK 0 | CSNK1A1 = 0 | CSNK1D 0 | DDR1 = 0 | DYRK1B 0 | DYRK2 = 0

(next part)

Cc1ccc(-n2c(-c3ccc(O)cc3O)n[nH]c2=O)cc1 (10 µM)
inactive: CDK9 = 0 | CHEK2 = 0 | CSK 0 | CSNK1A1 = 0 | CSNK1D 0 | DDR1 = 0 | DYRK1B 0 | DYRK2 = 0
active: CDK7 = 1 | CSF1R 1

CC(C)(O)c1cc(Nc2cc(Oc3cn(C4CC4)nc3C3CCOCC3)ccn2)ccn1 (10 µM)
inactive: CDK7 = 0 | CDK9 = 0 | CHEK2 = 0 | CSF1R 0 | CSK 0 | CSNK1A1 = 0 | CSNK1D 0 | DDR1 = 0 | DYRK1B 0 | DYRK2 = 0

CN(C)CCCNc1ccn2ncc(-c3ccc4c(c3)OCO4)c2n1 (10 µM)
inactive: CDK7 = 0 | CDK9 = 0 | CHEK2 = 0 | CSF1R 0 | CSK 0 | CSNK1A1 = 0 | CSNK1D 0 | DDR1 = 0 | DYRK1B 0 | DYRK2 = 0

CN1CCN(c2ccc(NC(=O)c3ccc(C#N)o3)c(N3CCCCC3)c2)CC1 (10 µM)
inactive: CDK7 = 0 | CDK9 = 0 | CHEK2 = 0 | CSF1R 0 | CSK 0 | CSNK1A1 = 0 | CSNK1D 0 | DDR1 = 0 | DYRK1B 0 | DYRK2 = 0

CCCCNc1ncc2c(-c3ccc(CN4CCN(C)CC4)cc3)cn([C@H]3CC[C@H](O)CC3)c2n1 [UNC2025 (hydrochloride)] (2.5 µM)
inactive: CDK7 = 0 | CDK9 = 0 | CHEK2 = 0 | CSF1R 0 | CSK 0 | CSNK1A1 = 0 | CSNK1D 0 | DDR1 = 0 | DYRK1B 0 | DYRK2 = 0

Cn1cc(-c2ccc3ncc(Cc4ccc5ncccc5c4)n3n2)cn1 (10 µM)
inactive: CDK7 = 0 | CDK9 = 0 | CHEK2 = 0 | CSF1R 0 | CSK 0 | CSNK1A1 = 0 | CSNK1D 0 | DDR1 = 0 | DYRK1B 0 | DYRK2 = 0

CC(=O)Nc1nc(C)c(-c2ccc(Cl)c(S(=O)(=O)NCCO)c2)s1 (10 µM)
inactive: CDK7 = 0 | CDK9 = 0 | CHEK2 = 0 | CSF1R 0 | CSK 0 | CSNK1A1 = 0 | CSNK1D 0 | DDR1 = 0 | DYRK1B 0 | DYRK2 = 0

C[C@@H]1CC[C@]2(C(=O)O)CC[C@]3(C)C(=CC[C@@H]4[C@@]5(C)CC[C@H](O)[C@@](C)(CO)[C@@H]5CC[C@]43C)[C@@H]2[C@]1(C)O [Rotundic acid] (10 µM)
inactive: CDK7 = 0 | CDK9 = 0 | CHEK2 = 0 | CSF1R 0 | CSK 0 | CSNK1A1 = 0 | CSNK1D 0 | DDR1 = 0 | DYRK1B 0 | DYRK2 = 0

O=C1NCCSc2c1sc1ccc(O)cc21 (2.5 µM)
inactive: CDK7 = 0 | CDK9 = 0 | CHEK2 = 0 | CSF1R 0 | CSK 0 | CSNK1A1 = 0 | CSNK1D 0 | DDR1 = 0 | DYRK1B 0 | DYRK2 = 0

CC(C)=C/C=C1\O[C@@H]2CC(C)=CC(=O)[C@@H]2[C@]1(C)O [Bisabolangelone] (10 µM)
inactive: CDK7 = 0 | CDK9 = 0 | CHEK2 = 0 | CSF1R 0 | CSK 0 | CSNK1A1 = 0 | CSNK1D 0 | DDR1 = 0 | DYRK1B 0 | DYRK2 = 0

COc1cccc2cc(-c3nc([C@H]4CC[C@H](C(=O)O)CC4)n4ncnc(N)c34)[nH]c12 (2.5 µM)
inactive: CDK7 = 0 | CHEK2 = 0 | CSF1R 0 | CSK 0 | CSNK1A1 = 0 | CSNK1D 0 | DDR1 = 0 | DYRK1B 0 | DYRK2 = 0
active: CDK9 = 1

O=C(CC(c1ccccc1)C(C(=O)O)C(=O)O)c1ccc(C(F)(F)F)cc1 (stereo not given) (10 µM)
inactive: CDK7 = 0 | CDK9 = 0 | CHEK2 = 0 | CSF1R 0 | CSK 0 | CSNK1A1 = 0 | CSNK1D 0 | DDR1 = 0 | DYRK1B 0 | DYRK2 = 0

Cc1cc(F)c(Nc2ncnc3cc(OCc4ccccc4)ccc23)cc1O (10 µM)
inactive: CDK7 = 0 | CDK9 = 0 | CHEK2 = 0 | CSF1R 0 | CSK 0 | CSNK1A1 = 0 | CSNK1D 0 | DDR1 = 0 | DYRK1B 0 | DYRK2 = 0

CC(C)(C)S(=O)(=O)c1cc2c(Nc3ccc4scnc4c3)ccnc2cc1OCCOCCOCCOCCOCC(=O)Nc1cccc2c1CN(C1CCC(=O)NC1=O)C2=O (stereo not given) [PROTAC RIPK degrader-6] (10 µM)
inactive: CDK7 = 0 | CDK9 = 0 | CHEK2 = 0 | CSF1R 0 | CSK 0 | CSNK1A1 = 0 | CSNK1D 0 | DDR1 = 0 | DYRK1B 0 | DYRK2 = 0

Source: the supplement of paper PMC12823440, “Inhibitors supercharge kinase turnover through native proteolytic circuits” (Nature, 2025)
